Measurements published in the supplement of paper PMC12823440, “Inhibitors supercharge kinase turnover through native proteolytic circuits” (Nature, 2025).
Some of the results follow. Hit calls seldom repeat between salt and free forms of one compound.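 In K562 cells expressing nanoluciferase-fused kinases, luminescence was recorded at 4 h intervals between 2 and 18 h, normalized as percent of control with DMSO at 100% and a positive control at 0%. A significant (2 sigma) signal drop marks a time point as decreased. The authors' rule for a hit is not shown and takes in more than the number of time points.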

Protein sequences, listed by entry. Tags and fused reporters are not part of them. Lines headed by an entry give the natural chain unless they say otherwise; changes in a name come on top.
UniProt Q14289, whole entry, looked up: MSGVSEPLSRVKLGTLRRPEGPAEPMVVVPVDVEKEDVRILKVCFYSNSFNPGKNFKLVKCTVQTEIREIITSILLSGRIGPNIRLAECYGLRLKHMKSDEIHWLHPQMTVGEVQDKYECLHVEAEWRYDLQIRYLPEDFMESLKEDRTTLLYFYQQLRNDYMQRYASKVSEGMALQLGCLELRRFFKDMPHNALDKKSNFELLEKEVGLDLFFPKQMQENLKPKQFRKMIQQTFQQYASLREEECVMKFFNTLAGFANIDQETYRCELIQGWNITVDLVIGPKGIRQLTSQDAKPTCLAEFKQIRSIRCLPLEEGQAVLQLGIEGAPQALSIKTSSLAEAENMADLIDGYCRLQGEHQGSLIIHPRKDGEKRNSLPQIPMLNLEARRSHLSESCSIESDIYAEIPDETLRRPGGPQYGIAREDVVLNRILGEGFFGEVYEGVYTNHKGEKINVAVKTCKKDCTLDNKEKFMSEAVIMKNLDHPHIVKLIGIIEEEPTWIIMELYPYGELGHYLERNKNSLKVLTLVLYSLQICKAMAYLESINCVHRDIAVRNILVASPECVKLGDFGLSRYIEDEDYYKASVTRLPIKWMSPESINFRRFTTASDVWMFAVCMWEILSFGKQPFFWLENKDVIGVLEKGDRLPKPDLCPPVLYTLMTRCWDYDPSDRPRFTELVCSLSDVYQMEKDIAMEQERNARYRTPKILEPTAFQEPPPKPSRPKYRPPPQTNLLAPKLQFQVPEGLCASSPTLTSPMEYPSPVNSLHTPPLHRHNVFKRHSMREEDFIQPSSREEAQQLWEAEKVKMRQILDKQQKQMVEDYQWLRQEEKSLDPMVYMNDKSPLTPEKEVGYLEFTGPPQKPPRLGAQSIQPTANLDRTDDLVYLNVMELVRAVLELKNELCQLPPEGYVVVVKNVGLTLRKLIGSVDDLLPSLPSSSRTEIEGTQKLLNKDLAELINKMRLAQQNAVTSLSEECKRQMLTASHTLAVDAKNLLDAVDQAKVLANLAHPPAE
UniProt Q9BRS2: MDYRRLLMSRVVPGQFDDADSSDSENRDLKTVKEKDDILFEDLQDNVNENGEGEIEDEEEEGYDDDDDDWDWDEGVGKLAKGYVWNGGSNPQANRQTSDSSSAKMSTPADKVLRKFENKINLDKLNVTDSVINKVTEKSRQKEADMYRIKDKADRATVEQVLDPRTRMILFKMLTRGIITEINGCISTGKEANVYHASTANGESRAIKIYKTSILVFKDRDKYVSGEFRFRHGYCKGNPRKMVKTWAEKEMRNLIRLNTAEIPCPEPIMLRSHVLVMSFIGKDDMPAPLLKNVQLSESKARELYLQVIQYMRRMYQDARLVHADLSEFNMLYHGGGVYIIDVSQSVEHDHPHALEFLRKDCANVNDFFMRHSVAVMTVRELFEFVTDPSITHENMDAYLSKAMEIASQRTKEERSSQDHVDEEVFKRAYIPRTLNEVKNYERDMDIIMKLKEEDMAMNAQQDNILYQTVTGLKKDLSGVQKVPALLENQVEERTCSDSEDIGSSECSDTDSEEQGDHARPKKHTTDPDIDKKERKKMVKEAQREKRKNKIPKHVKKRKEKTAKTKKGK
UniProt Q13546: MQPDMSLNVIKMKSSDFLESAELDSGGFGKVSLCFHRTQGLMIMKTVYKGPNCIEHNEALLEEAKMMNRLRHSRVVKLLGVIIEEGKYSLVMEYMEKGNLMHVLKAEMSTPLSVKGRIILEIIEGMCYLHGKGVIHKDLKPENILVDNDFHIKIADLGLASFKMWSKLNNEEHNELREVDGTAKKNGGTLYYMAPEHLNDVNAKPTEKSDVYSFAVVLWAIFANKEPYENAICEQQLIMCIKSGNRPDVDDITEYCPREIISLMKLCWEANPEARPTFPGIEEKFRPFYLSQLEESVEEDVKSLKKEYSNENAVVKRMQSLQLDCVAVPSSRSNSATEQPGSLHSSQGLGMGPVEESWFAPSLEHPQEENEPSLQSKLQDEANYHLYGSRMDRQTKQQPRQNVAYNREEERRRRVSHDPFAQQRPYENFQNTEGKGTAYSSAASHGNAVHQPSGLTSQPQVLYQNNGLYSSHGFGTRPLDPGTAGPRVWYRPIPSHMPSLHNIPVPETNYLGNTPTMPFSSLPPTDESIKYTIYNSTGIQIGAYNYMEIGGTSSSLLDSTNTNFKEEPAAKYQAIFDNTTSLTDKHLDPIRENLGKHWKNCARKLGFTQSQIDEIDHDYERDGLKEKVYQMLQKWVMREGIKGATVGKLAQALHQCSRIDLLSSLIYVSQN
UniProt Q01974, whole entry: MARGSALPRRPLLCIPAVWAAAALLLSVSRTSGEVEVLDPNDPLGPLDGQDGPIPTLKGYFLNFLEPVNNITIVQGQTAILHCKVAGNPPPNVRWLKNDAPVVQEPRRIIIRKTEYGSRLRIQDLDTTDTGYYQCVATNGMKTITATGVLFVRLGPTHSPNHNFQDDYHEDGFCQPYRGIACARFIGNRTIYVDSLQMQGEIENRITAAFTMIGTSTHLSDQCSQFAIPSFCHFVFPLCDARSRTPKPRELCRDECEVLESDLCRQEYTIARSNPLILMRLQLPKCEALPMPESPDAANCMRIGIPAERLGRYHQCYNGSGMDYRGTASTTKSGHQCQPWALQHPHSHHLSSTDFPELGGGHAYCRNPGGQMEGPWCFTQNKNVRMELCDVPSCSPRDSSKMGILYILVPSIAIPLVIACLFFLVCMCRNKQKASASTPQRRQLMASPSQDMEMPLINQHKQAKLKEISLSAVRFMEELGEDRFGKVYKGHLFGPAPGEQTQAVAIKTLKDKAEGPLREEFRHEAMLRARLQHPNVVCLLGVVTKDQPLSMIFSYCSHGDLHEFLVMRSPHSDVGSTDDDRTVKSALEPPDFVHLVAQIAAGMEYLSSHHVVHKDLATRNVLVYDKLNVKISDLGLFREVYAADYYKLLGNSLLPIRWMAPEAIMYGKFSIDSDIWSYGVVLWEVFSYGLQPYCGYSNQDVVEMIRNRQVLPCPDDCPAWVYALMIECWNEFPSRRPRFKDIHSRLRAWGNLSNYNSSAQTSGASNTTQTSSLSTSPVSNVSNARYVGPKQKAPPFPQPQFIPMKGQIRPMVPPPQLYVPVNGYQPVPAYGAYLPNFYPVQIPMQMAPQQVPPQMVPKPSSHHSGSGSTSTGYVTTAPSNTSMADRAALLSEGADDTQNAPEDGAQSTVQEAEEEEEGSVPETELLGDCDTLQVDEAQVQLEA
UniProt Q15418, whole entry: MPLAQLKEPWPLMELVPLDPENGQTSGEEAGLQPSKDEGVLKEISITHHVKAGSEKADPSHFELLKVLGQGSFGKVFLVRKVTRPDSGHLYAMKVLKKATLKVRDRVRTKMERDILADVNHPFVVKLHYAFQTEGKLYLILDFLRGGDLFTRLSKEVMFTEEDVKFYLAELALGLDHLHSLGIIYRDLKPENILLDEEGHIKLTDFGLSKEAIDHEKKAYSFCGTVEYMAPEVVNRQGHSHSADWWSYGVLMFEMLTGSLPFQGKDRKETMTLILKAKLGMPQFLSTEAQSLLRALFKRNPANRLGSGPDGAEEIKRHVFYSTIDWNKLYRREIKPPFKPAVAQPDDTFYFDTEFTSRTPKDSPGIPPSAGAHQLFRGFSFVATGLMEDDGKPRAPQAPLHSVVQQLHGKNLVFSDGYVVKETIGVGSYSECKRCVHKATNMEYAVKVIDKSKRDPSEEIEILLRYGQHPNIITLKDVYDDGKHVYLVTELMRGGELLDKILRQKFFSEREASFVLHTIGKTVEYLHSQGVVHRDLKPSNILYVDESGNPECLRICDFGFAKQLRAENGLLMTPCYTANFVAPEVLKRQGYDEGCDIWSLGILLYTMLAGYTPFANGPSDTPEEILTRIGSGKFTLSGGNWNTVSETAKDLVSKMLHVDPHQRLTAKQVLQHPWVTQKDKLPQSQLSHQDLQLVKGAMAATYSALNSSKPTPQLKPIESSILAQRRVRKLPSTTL
UniProt Q9NYA1, whole entry: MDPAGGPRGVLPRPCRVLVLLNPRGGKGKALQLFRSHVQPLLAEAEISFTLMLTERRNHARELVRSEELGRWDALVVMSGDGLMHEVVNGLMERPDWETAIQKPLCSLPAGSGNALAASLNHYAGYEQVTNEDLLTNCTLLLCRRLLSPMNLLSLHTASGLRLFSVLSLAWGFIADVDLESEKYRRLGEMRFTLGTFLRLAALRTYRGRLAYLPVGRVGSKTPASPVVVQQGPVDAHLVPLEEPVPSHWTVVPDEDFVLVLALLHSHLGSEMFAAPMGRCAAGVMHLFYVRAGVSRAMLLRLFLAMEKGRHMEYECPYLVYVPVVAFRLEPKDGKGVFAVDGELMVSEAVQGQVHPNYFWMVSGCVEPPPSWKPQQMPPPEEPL
UniProt Q9Y6E0: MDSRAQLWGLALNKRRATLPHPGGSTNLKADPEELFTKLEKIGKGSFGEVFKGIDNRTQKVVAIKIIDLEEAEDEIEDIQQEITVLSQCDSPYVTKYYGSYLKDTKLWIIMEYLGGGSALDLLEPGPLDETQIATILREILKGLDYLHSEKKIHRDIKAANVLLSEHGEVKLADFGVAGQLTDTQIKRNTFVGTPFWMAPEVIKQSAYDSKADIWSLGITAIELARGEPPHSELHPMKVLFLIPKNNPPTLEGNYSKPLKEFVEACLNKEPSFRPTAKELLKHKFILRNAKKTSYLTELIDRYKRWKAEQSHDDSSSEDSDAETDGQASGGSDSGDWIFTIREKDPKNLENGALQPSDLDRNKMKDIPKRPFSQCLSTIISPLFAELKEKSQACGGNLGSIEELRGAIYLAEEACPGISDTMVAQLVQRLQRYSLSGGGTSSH
UniProt Q15208: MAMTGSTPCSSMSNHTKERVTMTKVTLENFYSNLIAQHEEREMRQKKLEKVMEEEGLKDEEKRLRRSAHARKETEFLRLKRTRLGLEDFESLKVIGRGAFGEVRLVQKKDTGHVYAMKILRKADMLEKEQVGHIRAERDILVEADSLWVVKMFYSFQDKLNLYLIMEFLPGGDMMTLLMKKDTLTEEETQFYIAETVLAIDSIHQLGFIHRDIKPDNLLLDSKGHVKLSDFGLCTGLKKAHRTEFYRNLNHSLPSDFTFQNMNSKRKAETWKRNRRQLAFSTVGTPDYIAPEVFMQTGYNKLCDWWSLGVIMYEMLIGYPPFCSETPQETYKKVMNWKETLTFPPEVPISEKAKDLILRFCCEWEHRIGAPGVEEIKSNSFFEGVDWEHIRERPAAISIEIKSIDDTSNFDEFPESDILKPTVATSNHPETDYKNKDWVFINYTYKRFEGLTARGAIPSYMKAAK
UniProt P29597: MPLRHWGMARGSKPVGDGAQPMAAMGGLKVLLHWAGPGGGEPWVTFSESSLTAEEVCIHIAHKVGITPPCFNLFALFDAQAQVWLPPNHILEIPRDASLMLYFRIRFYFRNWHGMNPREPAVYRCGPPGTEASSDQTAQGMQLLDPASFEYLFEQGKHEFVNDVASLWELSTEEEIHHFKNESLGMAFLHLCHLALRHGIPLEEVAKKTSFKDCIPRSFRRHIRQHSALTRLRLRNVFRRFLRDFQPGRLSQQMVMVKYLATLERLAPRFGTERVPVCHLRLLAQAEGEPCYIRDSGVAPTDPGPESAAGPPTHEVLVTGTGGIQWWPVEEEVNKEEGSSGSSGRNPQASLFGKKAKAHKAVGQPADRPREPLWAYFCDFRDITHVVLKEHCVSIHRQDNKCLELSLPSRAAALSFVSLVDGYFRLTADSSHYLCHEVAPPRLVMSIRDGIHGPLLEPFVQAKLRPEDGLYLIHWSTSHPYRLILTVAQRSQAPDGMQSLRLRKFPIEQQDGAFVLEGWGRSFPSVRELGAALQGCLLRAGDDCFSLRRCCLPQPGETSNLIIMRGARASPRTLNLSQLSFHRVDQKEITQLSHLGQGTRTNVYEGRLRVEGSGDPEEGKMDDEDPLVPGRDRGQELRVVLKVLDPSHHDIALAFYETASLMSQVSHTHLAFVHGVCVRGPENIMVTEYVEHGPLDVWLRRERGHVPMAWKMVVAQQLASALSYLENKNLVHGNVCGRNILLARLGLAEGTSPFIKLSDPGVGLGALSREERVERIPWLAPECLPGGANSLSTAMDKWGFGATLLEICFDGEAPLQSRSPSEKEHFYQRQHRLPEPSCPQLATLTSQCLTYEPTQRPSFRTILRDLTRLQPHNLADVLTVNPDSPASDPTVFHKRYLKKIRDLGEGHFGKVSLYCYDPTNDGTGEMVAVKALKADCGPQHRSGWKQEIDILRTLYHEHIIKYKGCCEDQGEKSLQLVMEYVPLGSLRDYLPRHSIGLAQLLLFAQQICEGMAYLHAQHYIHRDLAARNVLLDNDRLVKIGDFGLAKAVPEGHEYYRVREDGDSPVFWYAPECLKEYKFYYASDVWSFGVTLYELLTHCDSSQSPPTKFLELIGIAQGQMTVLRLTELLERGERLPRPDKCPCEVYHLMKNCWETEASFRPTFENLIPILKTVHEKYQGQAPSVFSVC

Columns and labels:
Assay in all cases: number of time points (of 5) at which kinase-Nluc abundance scored as decreased, DMSO-normalised (count); higher = more persistent destabilization
Details in all cases: K562; 2-18 h
PRKCA = PRKCA (UniProt P17252)
PTK2 = PTK2 (UniProt Q05397)
PTK2B = PTK2B (UniProt Q14289)
RAF1 = RAF1 (UniProt P04049)
[1] = target: RAF1_S257L (clone: RAF1_mut) (UniProt P04049)
RET = RET (UniProt P07949)
[2] = target: RET_M918T (clone: RET_mut) (UniProt P07949)
RIOK1 = RIOK1 (UniProt Q9BRS2)
RIPK1 = RIPK1 (UniProt Q13546)
RIPK2 = RIPK2 (UniProt O43353)
ROR2 = ROR2 (UniProt Q01974)
RPS6KA1 = RPS6KA1 (UniProt Q15418)
SPHK1 = SPHK1 (UniProt Q9NYA1)
SRC = SRC (UniProt P12931)
STK24 = STK24 (UniProt Q9Y6E0)
STK38 = STK38 (UniProt Q15208)
SYK = SYK (UniProt P43405)
TEC = TEC (UniProt P42680)
TYK2 = TYK2 (UniProt P29597)
ULK3 = ULK3 (UniProt Q6PHR2)

Measured: number of time points

C=CCc1ccc(O)c(-c2ccc(O)c(CC=C)c2)c1 [Honokiol] (10 µM)
0: PRKCA | PTK2 | PTK2B | RAF1 | [1] | RET | [2] | RIOK1 | RIPK1 | RIPK2 | ROR2 | RPS6KA1 | SPHK1 | SRC | STK24 | STK38 | SYK | TEC | TYK2 | ULK3

CC(=O)c1c(C)c2cnc(Nc3ccc(N4CCN(C(=O)CNc5cccc6c5C(=O)N(C5CCC(=O)NC5=O)C6=O)CC4)cn3)nc2n(C2CCCC2)c1=O (stereo not given) (10 µM)
0: PRKCA | PTK2 | PTK2B | RAF1 | [1] | RET | [2] | RIOK1 | RIPK1 | RIPK2 | ROR2 | RPS6KA1 | SPHK1 | SRC | STK24 | STK38 | SYK | TEC | TYK2 | ULK3

Cc1ccc(-c2csc3ncnc(SCCC(=O)O)c23)cc1 (10 µM)
0: PRKCA | PTK2 | PTK2B | RAF1 | [1] | RET | [2] | RIOK1 | RIPK1 | RIPK2 | ROR2 | RPS6KA1 | SPHK1 | SRC | STK24 | STK38 | SYK | TEC | TYK2 | ULK3

CCCNC(=O)Nc1ccc(Oc2ncnc3cc(OC)c(OC)cc23)cc1Cl (2.5 µM)
0: PRKCA | PTK2 | PTK2B | RAF1 | [1] | RET | [2] | RIOK1 | RIPK1 | RIPK2 | ROR2 | RPS6KA1 | SPHK1 | SRC | STK24 | STK38 | SYK | TEC | TYK2 | ULK3

CC(C)=CCc1c(-c2ccc(O)cc2O)oc2c3c(cc(O)c2c1=O)OC(C)(C)C=C3 [Morusin] (2.5 µM)
0: PRKCA | PTK2 | PTK2B | RAF1 | [1] | RET | [2] | RIOK1 | RIPK1 | RIPK2 | ROR2 | RPS6KA1 | SPHK1 | SRC | STK24 | STK38 | SYK | TEC | TYK2 | ULK3

COc1ncccc1-c1cnn2ccc(N3CCN(C(=O)OC(C)C)CC3)nc12 (10 µM)
0: PRKCA | PTK2 | PTK2B | RAF1 | [1] | RET | [2] | RIOK1 | RIPK1 | RIPK2 | ROR2 | RPS6KA1 | SPHK1 | SRC | STK24 | STK38 | SYK | TEC | TYK2 | ULK3

CC1(C)Cc2c(sc(NC(=S)NC(=O)c3ccccc3)c2C(=O)O)CO1 (10 µM)
0: PRKCA | PTK2 | PTK2B | RAF1 | [1] | RET | [2] | RIOK1 | RIPK1 | RIPK2 | ROR2 | RPS6KA1 | SPHK1 | SRC | STK24 | STK38 | SYK | TEC | TYK2 | ULK3

COc1ccc(N=Nc2c(N)n[nH]c2N)cc1 (10 µM)
0: PRKCA | PTK2 | PTK2B | RAF1 | [1] | RET | [2] | RIOK1 | RIPK1 | RIPK2 | ROR2 | RPS6KA1 | SPHK1 | SRC | STK24 | STK38 | SYK | TEC | TYK2 | ULK3

C=CC(=O)Nc1cc(Nc2nccc(-n3cc(CN(C)C)c(-c4ccccc4)n3)n2)c(OC)cc1N1CCOCC1 [Lazertinib] (10 µM)
0: PRKCA | PTK2 | PTK2B | RAF1 | [1] | RET | [2] | RIOK1 | RIPK1 | RIPK2 | ROR2 | RPS6KA1 | SPHK1 | SRC | STK24 | STK38 | SYK | TEC | TYK2 | ULK3

CC(C)CCNC(=O)c1ccc2c(c1)nc(Nc1n[nH]c3ccc(-c4ccccc4OC(F)(F)F)cc13)n2C1CCC(O)CC1 (stereo not drawn) [IRAK inhibitor 4 (trans)] (10 µM)
0: PRKCA | PTK2 | PTK2B | RAF1 | [1] | RET | [2] | RIOK1 | RIPK1 | RIPK2 | ROR2 | RPS6KA1 | SPHK1 | SRC | STK24 | STK38 | SYK | TEC | TYK2 | ULK3

N#Cc1c2nc3ccccc3nc2n2ccc(NC(=O)c3cccs3)cc12 (10 µM)
0: PRKCA | PTK2 | PTK2B | RAF1 | [1] | RET | [2] | RIOK1 | RIPK1 | RIPK2 | ROR2 | RPS6KA1 | SPHK1 | SRC | STK24 | STK38 | SYK | TEC | TYK2 | ULK3

O=C(NCc1cccc(O)c1)Nc1nc(-c2ccncc2)cs1 (10 µM)
0: PRKCA | PTK2 | PTK2B | RAF1 | [1] | RET | [2] | RIOK1 | RIPK1 | RIPK2 | ROR2 | RPS6KA1 | SPHK1 | SRC | STK24 | STK38 | SYK | TEC | TYK2 | ULK3
